This note sets out measurements from article PMC8042168, “The cell surface hyaluronidase TMEM2 regulates cell adhesion and migration via degradation of hyaluronan at focal adhesion sites” (The Journal of Biological Chemistry, 2021).

Sequences of proteins named here, by UniProt entry; tags and fusion partners are left off. A change or cut given only in a name is not applied to a line headed by its entry.
UniProt P20701: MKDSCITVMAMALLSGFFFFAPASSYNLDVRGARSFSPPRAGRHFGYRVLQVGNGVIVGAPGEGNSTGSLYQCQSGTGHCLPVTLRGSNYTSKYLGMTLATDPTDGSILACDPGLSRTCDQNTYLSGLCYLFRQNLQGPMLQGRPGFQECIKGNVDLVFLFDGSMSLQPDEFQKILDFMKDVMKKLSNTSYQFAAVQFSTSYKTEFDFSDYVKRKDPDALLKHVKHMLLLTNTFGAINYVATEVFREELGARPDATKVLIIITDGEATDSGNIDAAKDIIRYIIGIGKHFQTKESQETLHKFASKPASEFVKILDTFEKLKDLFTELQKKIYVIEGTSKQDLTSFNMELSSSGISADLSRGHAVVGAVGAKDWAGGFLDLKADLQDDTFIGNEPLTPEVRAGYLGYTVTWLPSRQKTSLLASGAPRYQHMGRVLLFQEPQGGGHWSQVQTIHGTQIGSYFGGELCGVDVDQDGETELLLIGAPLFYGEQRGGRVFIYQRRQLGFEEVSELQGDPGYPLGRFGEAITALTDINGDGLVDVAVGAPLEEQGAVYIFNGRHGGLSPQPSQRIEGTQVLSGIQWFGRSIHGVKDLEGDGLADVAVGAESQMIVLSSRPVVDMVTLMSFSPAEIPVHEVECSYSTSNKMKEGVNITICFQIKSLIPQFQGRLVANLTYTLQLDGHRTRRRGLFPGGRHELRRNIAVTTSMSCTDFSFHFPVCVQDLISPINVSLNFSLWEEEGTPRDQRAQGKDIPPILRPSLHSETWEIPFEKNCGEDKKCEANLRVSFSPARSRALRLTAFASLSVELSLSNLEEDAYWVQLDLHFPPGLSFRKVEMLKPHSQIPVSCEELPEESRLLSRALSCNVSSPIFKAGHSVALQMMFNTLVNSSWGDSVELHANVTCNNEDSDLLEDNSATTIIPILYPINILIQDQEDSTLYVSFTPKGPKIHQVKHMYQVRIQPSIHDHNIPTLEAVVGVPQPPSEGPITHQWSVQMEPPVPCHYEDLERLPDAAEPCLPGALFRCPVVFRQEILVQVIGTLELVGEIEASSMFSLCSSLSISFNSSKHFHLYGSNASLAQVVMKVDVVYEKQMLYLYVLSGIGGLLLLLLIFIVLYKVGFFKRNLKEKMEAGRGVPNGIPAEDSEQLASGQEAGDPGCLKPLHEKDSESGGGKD

These are yes or no findings as the source states them, for the method shown. Some binding calls cover weakened binding; strength is not graded here. Where a sequence is shown, tags or fusion partners need not be part of it.

This test concerns the target T1, recombinant soluble TMEM2 extracellular domain, 6x His-tagged (mouse) (UniProt Q5FWI3).
T1 sequence: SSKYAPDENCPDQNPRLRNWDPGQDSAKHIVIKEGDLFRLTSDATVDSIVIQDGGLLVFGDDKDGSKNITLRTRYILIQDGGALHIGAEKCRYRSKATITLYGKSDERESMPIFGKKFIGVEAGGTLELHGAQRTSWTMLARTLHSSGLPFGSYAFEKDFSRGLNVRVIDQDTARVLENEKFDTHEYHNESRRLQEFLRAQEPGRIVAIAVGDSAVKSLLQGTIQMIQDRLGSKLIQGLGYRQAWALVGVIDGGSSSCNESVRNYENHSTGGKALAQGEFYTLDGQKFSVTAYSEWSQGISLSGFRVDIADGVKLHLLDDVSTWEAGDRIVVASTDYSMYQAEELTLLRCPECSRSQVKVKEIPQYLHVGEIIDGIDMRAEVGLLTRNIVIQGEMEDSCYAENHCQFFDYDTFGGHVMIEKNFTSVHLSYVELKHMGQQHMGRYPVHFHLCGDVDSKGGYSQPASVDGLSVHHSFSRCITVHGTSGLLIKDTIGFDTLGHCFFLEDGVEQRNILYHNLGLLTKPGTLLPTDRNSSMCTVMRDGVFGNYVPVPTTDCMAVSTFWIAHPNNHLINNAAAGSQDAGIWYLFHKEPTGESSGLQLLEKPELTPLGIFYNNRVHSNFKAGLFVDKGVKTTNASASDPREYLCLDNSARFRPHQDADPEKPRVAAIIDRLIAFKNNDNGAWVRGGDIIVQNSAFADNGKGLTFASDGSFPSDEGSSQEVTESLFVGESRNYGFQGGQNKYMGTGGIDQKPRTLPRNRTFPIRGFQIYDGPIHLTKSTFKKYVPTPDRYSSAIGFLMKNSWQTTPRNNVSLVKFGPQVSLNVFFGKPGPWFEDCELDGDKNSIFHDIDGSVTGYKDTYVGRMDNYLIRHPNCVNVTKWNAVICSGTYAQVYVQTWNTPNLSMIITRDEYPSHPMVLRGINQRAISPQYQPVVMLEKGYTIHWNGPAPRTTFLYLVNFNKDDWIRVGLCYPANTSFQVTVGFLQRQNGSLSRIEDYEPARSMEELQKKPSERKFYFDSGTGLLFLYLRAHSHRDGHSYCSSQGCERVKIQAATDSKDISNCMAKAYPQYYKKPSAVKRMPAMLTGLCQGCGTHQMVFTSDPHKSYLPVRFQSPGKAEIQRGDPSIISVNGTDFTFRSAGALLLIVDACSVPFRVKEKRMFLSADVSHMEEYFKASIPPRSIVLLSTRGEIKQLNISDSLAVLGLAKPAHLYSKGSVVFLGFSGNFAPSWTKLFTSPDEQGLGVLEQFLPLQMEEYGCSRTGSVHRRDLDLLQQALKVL
As to the kind of experiment: pull-down; TMEM2–ECD-His6 (about 5 μg/20 μl) held on ProBond nickel chelating resin; 2 μg recombinant integrin ECD heterodimer incubated in HBSS++ overnight at 4 °C; control unbound resin; blots; both purified.

Consider “αLβ2 ECD heterodimer (lymphocyte function-associated antigen-1) (from UniProt P20701 26-1090; P05107 23-700) (complex)”, for which the binding result was “binds”.
